No constants are given. Whether binding was seen depends on the method and setting. In cells and extracts the contact can be indirect. Binding calls can cover weak binding; strength is not graded here.
B1: IRAK2 (enzyme, UniProt Q8CFA1 1-622, looked up)
chain: MACYIYQLPSWVLDDLCRNIDTLSEWDWMQFASYVITDLTQLRKIKSMERVQGVSITRELLWWWSMRQATVQQLVDLLCHLELYRAAQIVLSWKPVPESTSPLPAFPEAVKPGAVATSRRNLKDEQEKVRPVKPRSLLDTGPIMAGAQRQRPCEMDAPCSLKTDAPDSPQSKYCSTSTSAPKQERLLGLPGDRLFWSEADVVQATEDFDQSHRISEGTFADIYQGQRNGVAFAFKKLREVAGSSPGSMDRFLQAEMQLCLRCCHANVLPLLGFCTGRQFHSLIYPYMANGSLHDRLWAQGNSDMLPWPQRASICSGLLLAVEHLHSLDIIHSNVKSANVLLDQHLNPKLAHPVAHPHPDNKKTKYTVMRTHLFQASAAYLPEHFIRVGQLTKQVDIFSCGIVLAEVLTGIPAMDKDRSPVYLKDLLLSEIPNSTSSVCSRKTSMGKAVVKEICQRHVEKRAGLLPEACEEAWATAVSVCLRRRNASVEEARVSLAGVEEQLRGQLSLPWSRVSEATGSSSNTPEETDDVDNSSLSVPSLVMMASCPGAASSPLFTGHGAAQPSTSGRQEADSSSEACTGPQTPQNATETSWKIEINEAKRRLMENIVLYKEERLDSSELFGP
B2: TRAF6 (enzyme, UniProt P70196 1-530, looked up)
chain: MSLLNCENSCGSSQSSSDCCAAMAASCSAAVKDDSVSGSASTGNLSSSFMEEIQGYDVEFDPPLESKYECPICLMALREAVQTPCGHRFCKACIIKSIRDAGHKCPVDNEILLENQLFPDNFAKREILSLTVKCPNKGCLQKMELRHLEDHQVHCEFALVNCPQCQRPFQKCQVNTHIIEDCPRRQVSCVNCAVSMAYEEKEIHDQSCPLANIICEYCGTILIREQMPNHYDLDCPTAPIPCTFSVFGCHEKMQRNHLARHLQENTQLHMRLLAQAVHNVNLALRPCDAASPSRGCRPEDPNYEETIKQLESRLVRQDHQIRELTAKMETQSMYVGELKRTIRTLEDKVAEMEAQQCNGIYIWKIGNFGMHLKSQEEERPVVIHSPGFYTGRPGYKLCMRLHLQLPTAQRCANYISLFVHTMQGEYDSHLPWPFQGTIRLTILDQSEALIRQNHEEVMDAKPELLAFQRPTIPRNPKGFGYVTFMHLEALRQGTFIKDDTLLVRCEVSTRFDMGGLRKEGFQPRSTDAGV

Assays:
[1] = molecular target: 3×FLAG-tagged TRAF6 allele; test: anti-FLAG (M2) co-immunoprecipitation versus control IgG, LPS-stimulated iBMDMs, western blot (FIG. 74B)
[2] = molecular target: 3×FLAG-tagged MyD88 allele; test: anti-FLAG (M2) co-immunoprecipitation from Myd88-/-/Trif-/- iBMDMs expressing 3×FLAG-MyD88, western blot (FIG. 71B)
[3] = molecular target: 3×FLAG-tagged TRAF6 allele; test: anti-FLAG (M2) co-immunoprecipitation from TLR-ligand-stimulated iBMDMs expressing 3×FLAG-TRAF6, western blot (FIG. 69C)

Row | Binder | binding [1] | binding [2] | binding [3]
1 | B1 | binds | binds | binds
2 | B2 |  | binds | 
